Data taken from ChEMBL document CHEMBL3988442, “University of Dundee, Small-Polar-MMV Screening Library” (2021).

By UniProt entry, the sequences of proteins in these tests, tags left out.
UniProt I6X8D2, whole entry: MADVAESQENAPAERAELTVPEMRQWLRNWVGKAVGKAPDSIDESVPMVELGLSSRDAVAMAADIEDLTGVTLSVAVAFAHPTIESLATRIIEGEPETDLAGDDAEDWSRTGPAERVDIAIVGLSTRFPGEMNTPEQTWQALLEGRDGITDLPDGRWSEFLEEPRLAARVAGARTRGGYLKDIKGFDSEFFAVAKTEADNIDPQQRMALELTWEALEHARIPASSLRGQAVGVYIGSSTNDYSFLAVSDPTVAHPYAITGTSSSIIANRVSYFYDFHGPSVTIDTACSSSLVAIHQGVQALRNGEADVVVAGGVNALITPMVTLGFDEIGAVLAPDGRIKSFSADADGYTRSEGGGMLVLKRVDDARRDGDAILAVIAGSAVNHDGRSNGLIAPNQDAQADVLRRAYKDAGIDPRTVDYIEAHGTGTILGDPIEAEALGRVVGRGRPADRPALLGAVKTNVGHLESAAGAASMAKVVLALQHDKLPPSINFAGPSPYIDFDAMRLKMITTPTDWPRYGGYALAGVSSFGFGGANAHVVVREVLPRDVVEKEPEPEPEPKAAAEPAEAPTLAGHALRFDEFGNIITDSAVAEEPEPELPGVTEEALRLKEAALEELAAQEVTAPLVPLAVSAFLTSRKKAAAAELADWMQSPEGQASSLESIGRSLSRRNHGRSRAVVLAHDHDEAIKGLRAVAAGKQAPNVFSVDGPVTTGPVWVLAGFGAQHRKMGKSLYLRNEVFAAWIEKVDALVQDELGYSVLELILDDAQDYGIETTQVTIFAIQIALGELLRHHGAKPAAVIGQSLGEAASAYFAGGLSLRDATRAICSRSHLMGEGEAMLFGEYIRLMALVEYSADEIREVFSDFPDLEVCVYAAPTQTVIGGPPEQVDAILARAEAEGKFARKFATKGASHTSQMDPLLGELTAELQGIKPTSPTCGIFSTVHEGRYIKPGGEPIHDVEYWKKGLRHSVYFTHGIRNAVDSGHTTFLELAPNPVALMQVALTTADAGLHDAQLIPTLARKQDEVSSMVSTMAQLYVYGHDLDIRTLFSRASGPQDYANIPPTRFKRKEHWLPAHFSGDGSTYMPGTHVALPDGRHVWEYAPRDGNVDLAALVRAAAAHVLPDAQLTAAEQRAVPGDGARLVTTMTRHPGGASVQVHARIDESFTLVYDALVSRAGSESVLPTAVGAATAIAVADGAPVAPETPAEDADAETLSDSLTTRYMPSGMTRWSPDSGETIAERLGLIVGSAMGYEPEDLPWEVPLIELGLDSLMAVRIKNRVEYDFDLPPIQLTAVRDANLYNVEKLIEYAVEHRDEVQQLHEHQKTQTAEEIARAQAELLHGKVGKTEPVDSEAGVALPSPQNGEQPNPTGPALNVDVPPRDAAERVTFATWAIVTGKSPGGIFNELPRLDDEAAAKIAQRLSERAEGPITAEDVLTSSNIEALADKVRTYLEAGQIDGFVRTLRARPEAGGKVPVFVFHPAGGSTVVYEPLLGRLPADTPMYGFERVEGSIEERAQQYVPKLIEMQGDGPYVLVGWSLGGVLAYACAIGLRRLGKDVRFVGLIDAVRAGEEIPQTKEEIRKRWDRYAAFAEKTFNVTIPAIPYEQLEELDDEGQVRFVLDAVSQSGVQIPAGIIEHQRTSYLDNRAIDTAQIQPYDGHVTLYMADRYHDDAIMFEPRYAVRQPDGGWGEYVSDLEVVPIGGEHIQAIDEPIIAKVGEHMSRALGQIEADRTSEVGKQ

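Polyketide synthase Pks13, Mycobacterium tuberculosis (UniProt I6X8D2). Enzyme assay of the thioesterase domain of polyketide synthase 13; the read-out is not stated. Compounds at 30 µM. Higher reads as stronger inhibition (inferred from which compounds were picked for retests). Of about 67,000 compounds tested this way, about 300 (0.46%) reached 50% or more in at least one test.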

Each number is a percent effect as filed.
The record does not define 0% and 100%; most values in the screen are far below 50% and negative numbers occur (in some assays of this library far below -100).
This is an unselected part of the compounds tested.

| # | structure | effect |
|---|---|---|
| 1 | `CN(Cc1cccnc1)c1nccc(N2CCN[C@H]3CS(=O)(=O)C[C@H]32)n1` | -17.98% |
| 2 | `CNC(=O)C1(c2cnccn2)CCCN1C(=O)c1cccnc1OC` (stereo unspecified) | 2.961% |
| 3 | `CCc1ccc2nc(C)cc(C(=O)NC3CCC(=O)N(C)C3)c2c1` (stereo unspecified) | 1.367% |
| 4 | `Cc1ccc(C(=O)Nc2ccc(N(C)C)nc2)n1C` | 0.2593% |
| 5 | `Cc1cc(C)n(NC(=O)c2cccc3c2OCC3)c(=O)c1` | -32.79% |
| 6 | `O=C(C1CCC1)N1CCN(Cc2cccnc2)[C@H]2CS(=O)(=O)C[C@H]21` | -21.16% |
| 7 | `Cn1ncc2c(NC3CCC3)nc(-c3ccncc3)nc21` | 5.319% |
| 8 | `CCN(CC)c1ncc2c(c1C(=O)O)CCN(C1CCOC1)C2` (stereo unspecified) | -18.39% |
| 9 | `Cc1nc(-c2ccc(S(=O)(=O)N3CCSC3)cc2)co1` | -1.684% |
| 10 | `CCN(CC)CCCC(C)NC(=O)c1cccnc1-n1cccn1` (stereo unspecified) | 41.08% |
| 11 | `CC(Cn1ccnc1)NC(=O)NCCc1cccnc1` (stereo unspecified) | -26.57% |
| 12 | `COc1ccccc1-n1nc(CC(C)C)nc1Cc1nnc(N)s1` | -7.046% |
| 13 | `COc1cc(C2SC(C)=Nc3c2c(=O)[nH]n3C2CCCC2)ccc1O` (stereo unspecified) | 5.579% |
| 14 | `COCCN(C)C[C@@H]1CN(C(=O)c2c(C)cccc2OC)C[C@@H]1CO` | -4.199% |
| 15 | `Cc1ccnc(C2(C)CCCN2S(=O)(=O)c2ccccc2)n1` (stereo unspecified) | -31.53% |
| 16 | `Cc1cnc(N2C[C@@H]3CN(C4CCOC4)CCC[C@]3(C(=O)O)C2)nc1` (stereo partly specified) | 1.494% |
| 17 | `CCN(C)C(=O)NCC1(CN2CCOCC2)CCCCC1` | -8.687% |
| 18 | `CCCn1ccnc1-c1cccc(NC(=O)[C@H]2CCC(=O)N2)c1` | -19.74% |
| 19 | `CN1[C@H]2CC[C@@H]1CN(C(=O)c1sccc1S(N)(=O)=O)CC2` | 2.433% |
| 20 | `CC(NC(=O)Nc1nccs1)C(=O)NC1CCCC1` (stereo unspecified) | 0.02498% |
| 21 | `O=S(=O)(NCC1COc2ccccc2C1)N1CCCC1` (stereo unspecified) | 1.717% |
| 22 | `O=C(Nc1ccc(=O)n(Cc2ccccc2Cl)c1)C1CC1` | -12.44% |
| 23 | `CN(C)c1cc(C(=O)N2CCN(S(C)(=O)=O)CC2)ccn1` | 6.451% |
| 24 | `Cc1nc(CN2CCCC23CCN(c2nc4ccccc4s2)CC3)co1` | -29.43% |
| 25 | `O=C(c1cnc2ccccc2c1)N1CCCC(O)(CN2CCCC2)C1` (stereo unspecified) | -0.8403% |
| 26 | `COCC(=O)N(C)Cc1nc(N2CCCC2)ncc1-c1ccncc1` | -24.41% |
| 27 | `CN(Cc1ncnn1C)C(=O)c1ccccc1NCc1ccccc1` | 2.399% |
| 28 | `Cc1ccc(C(=O)N2CCC3(CCCN(c4ccc(C)nn4)C3)C2)cn1` (stereo unspecified) | -6.277% |
| 29 | `FC(F)(F)c1cccc(CN2CCOC[C@H](Oc3cccnc3)C2)c1` | -24.39% |
| 30 | `CC(CO)CSc1ncnc2[nH]ncc12` (stereo unspecified) | -12.19% |
| 31 | `CCN1CCN(C2CCN(C(C(N)=O)c3ccc(F)cc3)CC2)C1=O` (stereo unspecified) | 33.44% |
| 32 | `Cn1ccc2ccc(C(=O)N3CCC[C@H]3C(=O)N3CCOCC3)cc21` | -6.959% |
| 33 | `Cc1nsc(N2CCN(C(=O)Nc3ccc4[nH]ccc4c3)CC2)n1` | 43.66% |
| 34 | `Cc1ccc(CN2CCc3c(nc4cc(C5CC5)nn4c3O)C2)s1` | -19.04% |
| 35 | `CCc1nc(CN(C)Cc2nc(-c3ccccc3Cl)oc2C)no1` | -18.46% |
| 36 | `COCCc1noc(C2CCCN(c3ncnc4c3CCC4)C2)n1` (stereo unspecified) | -0.197% |
| 37 | `CN(C)C(=O)CCS(=O)(=O)Cc1cc(Cl)c2c(c1)OCO2` | -4.439% |
| 38 | `CC(C)(C)NC(=O)c1ccn(COc2c(Cl)cccc2Cl)n1` | 10.02% |
| 39 | `CCc1nccn1-c1cncc(C2CCCN2Cc2cccnc2)n1` (stereo unspecified) | -27.05% |
| 40 | `CCc1c(C)sc2c1c(N)nc(=O)n2CCCN(C)C` | -11.75% |
| 41 | `OCCCN1CCc2onc(C(c3ccccc3)c3ccccc3)c2C1` | -5.614% |
| 42 | `c1cnn(CC2CCCCN2Cc2nc(-c3ccsc3)no2)c1` (stereo unspecified) | -6.08% |
| 43 | `Cc1ccc2c(C)c(C(=O)NCc3csc(N)n3)oc2c1` | -5.843% |
| 44 | `CCO[C@H]1CN(C)C[C@@H]1NC(=O)c1c[nH]nc1C1CCCCC1` | -42.75% |
| 45 | `O=C(O)c1cccnc1CN1CCCCC1CCc1cccs1` (stereo unspecified) | -54.21% |
| 46 | `Cc1noc2ncc(C(=O)N(CC3CCOC3)C3CC3)cc12` (stereo unspecified) | -6.833% |
| 47 | `Cc1nc(C)c(C(=O)N2CCCC(c3cnccn3)C2)s1` (stereo unspecified) | -8.763% |
| 48 | `CCCN1CCCC2(CCN(Cc3noc(C4CCCC4)n3)C2)C1=O` (stereo unspecified) | -37.67% |
| 49 | `CC(O)c1cn(CC2CCN(C(=O)c3cscn3)CC2)nn1` (stereo unspecified) | 7.87% |
| 50 | `CCS(=O)(=O)CC(=O)NC1CCc2nccn2C1` (stereo unspecified) | -10.92% |
| 51 | `CCNS(=O)(=O)c1cnccc1N1CCN(CCO)CC1` | -14.52% |
| 52 | `Nc1ncc(-c2cccc(NC(=O)[C@@H]3CCCCN3)c2)cn1` | 30.64% |
| 53 | `O=C(O)CN1CCCC2(CCN2Cc2cccc(F)c2)C1` (stereo unspecified) | 1.355% |
| 54 | `Cn1nccc1CCC(=O)NC1CCCN(c2ccccn2)C1` (stereo unspecified) | 6.161% |
| 55 | `COc1ccc(F)cc1C(=O)N1CCCC(n2nc(C)nc2C)C1` (stereo unspecified) | -16.29% |
| 56 | `Cc1cccc(C(=O)N2C[C@@H](C)[C@@]3(CCN(c4ccsc4)C3=O)C2)n1` | -18.36% |
| 57 | `CS(=O)(=O)NCCC(=O)NCc1cccnc1-n1cnc2ccccc21` | -6.867% |
| 58 | `O=C(CN1CCCC1COc1ccccc1)NCc1ccccn1` (stereo unspecified) | 4.249% |
| 59 | `O=C(NCC(Cc1cccc(F)c1)N1CCCC1=O)c1ccc(=O)[nH]n1` (stereo unspecified) | -9.797% |
| 60 | `CC(C)CN1CC[C@H]2OCC[C@@H](C(=O)N3CCCO3)[C@@H]2C1` | 8.036% |
| 61 | `COCc1cnc2n1CCN(Cc1cccnc1)C2C` (stereo unspecified) | 2.836% |
| 62 | `NC(=O)C1(CCCc2ccccn2)CCCN(CCO)C1` (stereo unspecified) | 1.182% |